{
  "source": "PubChem BioAssay AID236",
  "about": "(DTP/NCI, 2004)",
  "tested_on": "AK4 lymphoid leukemia ip, C3AKF1 mice, survival",
  "assay": "NCI In Vivo Anticancer Drug Screen. Data for tumor model AK4 Lymphoid Leukemia (intraperitoneal) in C3AKF1 (CHKRF1) mice",
  "settings": "T/C endpoint: median survival time, schedule: Q01DX010 (ip), vehicle: saline, higher T/C = longer survival",
  "description": "The antitumor activity of compounds was measured in mice bearing transplantable tumors. Survival or tumor size were measured and the results are expressed as the measurement made in the treated group (T) divided by the measurement made in the vehicle treated control group (C). The tumor model used in this assay is AK4 Lymphoid Leukemia (intraperitoneal) in C3AKF1 (CHKRF1) mice",
  "note": "The list does not hold the whole screen: it covers a few groups of compounds. Other doses and runs of a compound may be missing. T/C gives the treated animals as a percentage of the vehicle group. For survival time, this PubChem deposit counts one and a half times the control or more as active, and values a quarter to a half above the control carry no call in these data; other NCI protocols may use other cut-offs. Some entries show no survivor count and are marked so; the dose need not have been tolerated. Schedules are NCI's codes, read here as Q, the interval in days (D) or hours (H), X, the number of doses. Some entries were tested several times; their values stand side by side, smallest first.",
  "data": [
    {"smiles": "CN(CCCl)CCCl", "values": [
      {"measurement": "T/C", "setting": "dose: 0.13 mg/kg/injection", "result": "125 % of control [survivor count not shown]"},
      {"measurement": "T/C", "setting": "dose: 0.25 mg/kg/injection", "result": "131 [survivor count not shown] and 150 % of control [survivor count not shown]"},
      {"measurement": "T/C", "setting": "dose: 0.5 mg/kg/injection", "result": "125 [survivor count not shown] and 135 % of control [survivor count not shown]"},
      {"measurement": "T/C", "setting": "dose: 1.0 mg/kg/injection", "result": "87 [survivor count not shown] and 128 % of control [survivor count not shown]"}
    ]}
  ]
}
